From US4605641A (Hoffmann-La Roche Inc., priority 1984, dated 1986)

test: general procedure: Boc solid-phase peptide synthesis; benzhydrylamine (BHA) resin, styrene-1% divinylbenzene, 200-400 mesh (Beckman Instruments); symmetrical anhydrides or HOBt active esters of Boc-amino acids; settings: whole synthesis

**Q.** Which isolated yield does the source give for (Ser^11, Phe^13, Nle^17)VIP here?
**A.** 17.2%

**Q.** For “PEPTIDE1{H.S.D.A.V.F.T.D.N.Y.T.K.L.K.K.Q.[Nle].A.V.K.K.Y.L.N.S.V.L.T.[am]}$$$$V2.0”, which isolated yield is on record?
**A.** 10.5%

**Q.** With “PEPTIDE1{H.S.D.A.V.F.T.D.N.Y.T.K.L.R.K.Q.[Nle].A.V.K.K.Y.L.N.S.I.L.N.[am]}$$$$V2.0” as the substance, how does the isolated yield read?
**A.** 24%

**Q.** For “PEPTIDE1{H.S.D.A.V.F.T.D.N.Y.T.K.L.R.K.Q.[Nle].A.V.K.K.Y.L.N.S.V.L.T.[am]}$$$$V2.0”, which isolated yield is on record?
**A.** 13.5%

**Q.** Which isolated yield does the source give for “PEPTIDE1{H.S.D.A.V.F.T.D.N.Y.T.R.L.K.K.Q.[Nle].A.V.K.K.Y.L.N.S.I.L.N.[am]}$$$$V2.0” here?
**A.** 17%

**Q.** For “PEPTIDE1{H.S.D.A.V.F.T.D.N.Y.T.R.L.R.K.Q.[Nle].A.V.K.K.Y.L.N.S.I.L.N.[am]}$$$$V2.0”, which isolated yield is on record?
**A.** 22%

**Q.** For “PEPTIDE1{H.S.D.A.V.F.T.D.N.Y.T.R.L.R.K.Q.[Nle].A.V.K.K.Y.L.N.S.I.L.T.[am]}$$$$V2.0”, which isolated yield is on record?
**A.** 18.4%

**Q.** Which isolated yield does the source give for “PEPTIDE1{H.S.D.A.V.F.T.D.N.Y.T.R.L.R.K.Q.[Nle].A.V.K.K.Y.L.N.S.V.L.T.[am]}$$$$V2.0” here?
**A.** 33.5%

**Q.** With “PEPTIDE1{H.S.D.A.V.F.T.D.N.Y.T.R.L.R.K.Q.[Nle].A.V.K.K.Y.L.N.T.I.L.N.[am]}$$$$V2.0” as the substance, how does the isolated yield read?
**A.** 19.3%

**Q.** Which isolated yield does the source give for “PEPTIDE1{H.S.D.A.V.F.T.D.N.Y.T.R.L.R.K.Q.[Nle].A.V.K.K.Y.L.T.S.I.L.N.[am]}$$$$V2.0” here?
**A.** 11%

**Q.** For “PEPTIDE1{H.S.D.A.V.F.T.D.N.Y.T.[Orn].L.R.K.Q.[Nle].A.V.K.K.Y.L.N.S.I.L.N.[am]}$$$$V2.0”, which isolated yield is on record?
**A.** 14%

**Q.** For “PEPTIDE1{[ac].H.S.D.A.V.F.T.D.N.Y.S.R.F.R.K.Q.[Nle].A.V.K.K.Y.L.N.S.I.L.N.[am]}$$$$V2.0”, which isolated yield is on record?
**A.** 22.7%

**Q.** Which isolated yield does the source give for “PEPTIDE1{[ac].H.S.D.A.V.F.T.D.N.Y.T.K.L.R.K.Q.[Nle].A.V.K.K.Y.L.N.S.I.L.N.[am]}$$$$V2.0” here?
**A.** 11%

**Q.** For “PEPTIDE1{[ac].H.S.D.A.V.F.T.D.N.Y.T.R.L.R.K.Q.[Nle].A.V.K.K.Y.L.N.S.I.L.N.[am]}$$$$V2.0”, which isolated yield is on record?
**A.** 26%

Strings that start with PEPTIDE1 are HELM notation: dots part the residues, brackets hold end groups and non-standard residues.
